Data as given in PubChem BioAssay AID1259405 (NCATS, 2018).
Screen: 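Mouse-designed siRNAs used to find CHO productivity engineering targets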 (primary screen). Cells: Chinese hamster CHO-K1 ovary cells with stable secreted eGFP expression. Reagents: single siRNA against mouse genes, 0.8 pmol siRNA per well (2 µl of 400 nM stock). Duration: 3 days. Measurement: 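Per-well intracellular GFP measured by laser scanning cytometry, plus viability from ATP luminescence, each relative to plate median of non-targeting control wells, in %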. Direction: GFP, % of control: higher = more GFP per well, higher productivity; viability (ATP), % of control: higher = more viable cells (more ATP). Rule for the call: 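Called active when intracellular GFP, relative to negative control, is at or above 120%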.
In all, the deposit lists about 50,000 reagents; shown is an unselected part. In the full data, about 4,000 (8%) were called active. 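Mouse siRNA library applied to hamster cells; one well for each siRNA.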 No sequences are given here.

no.	gene	PubChem SID	GFP, % of control	viability (ATP), % of control	Call
1	Slc9a2	SID363575149	68	72.3	inactive
2	Slc9a2	SID363580781	63.9	38.8	inactive
3	Slc9a2	SID363582893	85.4	88.7	inactive
4	Icam4	SID363541232	24	25.9	inactive
5	Icam4	SID363555859	58.6	58.5	inactive
6	Icam4	SID363566148	67.7	52.3	inactive
7	Pigr	SID363568641	121	129	active
8	Pigr	SID363576033	67.4	55.2	inactive
9	Pigr	SID363578849	71.6	44.7	inactive
10	Phxr5	SID363554455	118	78.3	inactive
11	Phxr5	SID363567902	41.9	48.4	inactive
12	Phxr5	SID363585961	77.9	87.5	inactive
13	Slc25a5	SID363569990	86.6	93.2	inactive
14	Slc25a5	SID363577030	85.4	71.7	inactive
15	Slc25a5	SID363578438	29.5	52.5	inactive
16	Dynlt4	SID363541198	45.5	66.4	inactive
17	Dynlt4	SID363555825	71.3	83.1	inactive
18	Dynlt4	SID363566114	85.3	79.8	inactive
19	Fancd2	SID363539937	92.9	81.3	inactive
20	Fancd2	SID363561238	104	80.3	inactive
21	Fancd2	SID363564274	93.7	84	inactive
22	Cldn1	SID363572528	96.6	71.2	inactive
23	Cldn1	SID363577808	98.6	96.7	inactive
24	Cldn1	SID363582032	85.1	83.9	inactive
25	Zfp281	SID363569245	109	102	inactive
26	Zfp281	SID363583677	80	74.7	inactive
27	Cxcr1	SID363571122	113	106	inactive
28	Cxcr1	SID363571474	85.7	74.2	inactive
29	Cxcr1	SID363571826	70.6	77.2	inactive
30	Stk16	SID363547206	95.9	76.8	inactive
31	Stk16	SID363557975	54.4	51.3	inactive
32	Stk16	SID363559733	83.2	55.5	inactive
33	Trpm5	SID363574771	110	85.6	inactive
34	Trpm5	SID363575827	71.3	64.8	inactive
35	Trpm5	SID363580403	48.7	97.7	inactive

An excerpt from above, showing only “GFP, % of control”.
Icam4 [SID363566148]	67.7
Pigr [SID363568641]	121
Pigr [SID363576033]	67.4
